Primary screen of a compound library

T. brucei: 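Whole-parasite assay of Trypanosoma brucei over 72 hours; the read-out is not stated. Concentration: 30 µM. Higher reads as stronger inhibition (inferred: compounds with an IC50 in retests scored well above the rest). Values scatter widely below zero; nearly all retest evidence comes from the higher of the two concentrations used. About 64,000 compounds were tested under these conditions; 1.5% (about 940) showed 50% or more at least once.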
Toxoplasma: 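Assay of Toxoplasma gondii numbers, read through their beta-galactosidase reporter with a colour substrate. Concentration: 10 µM. Higher reads as fewer parasites (inferred from which compounds were picked for retests). About 67,000 compounds were tested under these conditions; 0.38% (about 260) showed 50% or more at least once.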

The filed quantity is “Percent Effect” (%). The record does not define 0% and 100%; most values in the screen are far below 50% and negative numbers occur (in some assays of this library far below -100). Compounds were drawn at random from those tested, without regard to their results. A dash means the value is not listed here; it may have been measured.

{"compound": "CCN1CC(COC(=O)c2ccc(Br)cc2F)CC1=O", "stereo": "stereo not drawn", "T. brucei": -3.97, "Toxoplasma": 2.142}
{"compound": "CC(C)N1c2sc(-c3ccsc3)nc2CC1C(=O)NC1CCCC1", "stereo": "stereo not drawn", "T. brucei": 3.985, "Toxoplasma": -3.288}
{"compound": "CCN(CC(=O)N(C)C)C(=O)c1ccc(-c2nc(C)cs2)cc1", "T. brucei": -44.3, "Toxoplasma": 16.89}
{"compound": "O=C(O)C(F)(F)F.[H][C@@]12CCN(Cc3ccco3)C[C@]1([H])[C@@H](CNC(=O)c1ccsc1)OC2", "T. brucei": 31.87, "Toxoplasma": 6.644}
{"compound": "CCOC(=O)CNC(=O)NCc1cccn1Cc1ccccc1", "T. brucei": -10.39, "Toxoplasma": -27.04}
{"compound": "Cc1cnn(CC2CN(CC(=O)N3CCc4ccccc43)CCO2)c1", "stereo": "stereo not drawn", "T. brucei": -12.1, "Toxoplasma": -1.611}
{"compound": "Cc1ncccc1NC(=O)C1=NOC2(CCN(Cc3nccs3)C2)C1", "stereo": "stereo not drawn", "T. brucei": 9.817, "Toxoplasma": 5.773}
{"compound": "CC(C)n1ccc2c(C(=O)NC3CN4CCC3CC4)cccc21", "stereo": "stereo not drawn", "T. brucei": -5.425, "Toxoplasma": -10.91}
{"compound": "CC(=O)c1cc(CC(=O)N2CCN(S(=O)(=O)c3ccccc3)CC2)cs1", "T. brucei": -27.8, "Toxoplasma": -3.467}
{"compound": "NC(=O)N1CCC2(CCN(C(=O)c3cccnc3)CC2)C1.O=C(O)C(F)(F)F", "T. brucei": -64.56, "Toxoplasma": -19.91}
{"compound": "[H][C@@]12CC(C)=CC[C@]1([H])CN(C(=O)c1ccc(-c3nc[nH]n3)cc1)C2", "T. brucei": 36.48, "Toxoplasma": -0.5464}
{"compound": "COCC(=O)N1CCC(c2cc(-c3ccc(N)nc3)cc(C)n2)CC1", "Toxoplasma": -2.778}
{"compound": "O=C(O)C(F)(F)F.[H][C@]12CCN(Cc3ccc4c(c3)OCO4)[C@@]1([H])C[C@H](C(=O)N(C)C)O2", "T. brucei": 17.59, "Toxoplasma": 6.005}
{"compound": "O=C(O)C(F)(F)F.[H][C@]12CCN(C(=O)c3cccs3)C[C@@]1([H])OCCN(C1CCOCC1)C2", "T. brucei": -3.643, "Toxoplasma": -7.798}
{"compound": "COc1cc(Cl)c(C)cc1NC(=O)CNc1ccn(CC(N)=O)n1", "T. brucei": 6.54, "Toxoplasma": 0.3743}
{"compound": "CN1C[C@@H](NC(=O)C2CC2)C[C@H]1c1nc(-c2cnccn2)no1", "T. brucei": -17.96, "Toxoplasma": -5.974}
{"compound": "CNC(=O)NC(=O)C(NCc1ccccc1)c1ccccc1", "stereo": "stereo not drawn", "T. brucei": -47, "Toxoplasma": 10.92}
{"compound": "c1cncc(CN2CCc3ncnc(NCCc4c[nH]cn4)c3CC2)c1", "T. brucei": -5.906, "Toxoplasma": 2.128}
{"compound": "O=c1oc(-c2cccs2)nn1CC(O)c1ccccc1F", "stereo": "stereo not drawn", "T. brucei": -32.85, "Toxoplasma": 10.35}
{"compound": "O=C(O)c1cccn1-c1ccc2c(c1)OCCO2", "T. brucei": -11.45, "Toxoplasma": 10.08}
{"compound": "Cc1cnn(CC(C)NCc2nc(-c3ccoc3)no2)c1", "stereo": "stereo not drawn", "T. brucei": -55.63, "Toxoplasma": 24.81}
{"compound": "[H][C@@]12CN(C3CCSCC3)C[C@]1([H])N(CCc1ccc(OC)cc1)C(=O)O2", "T. brucei": -11.16, "Toxoplasma": 2.441}
{"compound": "O=C(O)C(F)(F)F.[H][C@]12CC[C@@]3(N=C(C)N(CC4CC4)C3=O)[C@@]1([H])CN(Cc1cccc(Cl)c1)C2", "T. brucei": -45.51, "Toxoplasma": -39.31}
{"compound": "CN1CCC(N2CCC(C(=O)N(C)C)CC2)CC1.O=C(O)C(F)(F)F.O=C(O)C(F)(F)F", "T. brucei": -25.8, "Toxoplasma": 26.38}
{"compound": "CC(C)CN1CCC2(C=C(C(=O)N3CCCC3)c3ccccc32)CC1.O=C(O)C(F)(F)F", "T. brucei": -24.13, "Toxoplasma": -43.06}
{"compound": "O=C1CC(c2ccccc2)c2snc(C(=O)O)c2N1", "stereo": "stereo not drawn", "T. brucei": -5.584, "Toxoplasma": 2.032}
{"compound": "[H][C@@]12CN(Cc3ccc(-c4ccn[nH]4)s3)C[C@]1([H])[C@H]2C(=O)NC1CC1", "T. brucei": -64.29, "Toxoplasma": 1.784}
{"compound": "Cc1cc(CNC(=O)c2cc(COc3cncc(Cl)c3)on2)n[nH]1", "T. brucei": -9.706, "Toxoplasma": 0.3523}
{"compound": "O=C(Cc1ccccc1F)N1CCC[C@@H]1Cn1c(=O)oc2ccccc21", "T. brucei": -5.662, "Toxoplasma": 29.06}
{"compound": "[H][C@@]12CN(Cc3cccc(Cl)c3)CC[C@]1([H])N(C(C)=O)C[C@H]2c1ccsc1", "T. brucei": 48.29, "Toxoplasma": -4.837}
{"compound": "Fc1ccc(Br)c(NCc2nnsc2Cl)c1", "T. brucei": 9.499, "Toxoplasma": -1.364}

Some entries from above, unchanged:

| Compound | T. brucei | Toxoplasma |
|---|---|---|
| `[H][C@@]12CN(Cc3ccc(-c4ccn[nH]4)s3)C[C@]1([H])[C@H]2C(=O)NC1CC1` | -64.29% | 1.784% |
| `COCC(=O)N1CCC(c2cc(-c3ccc(N)nc3)cc(C)n2)CC1` | - | -2.778% |

Source: ChEMBL document CHEMBL3988442, “University of Dundee, Small-Polar-MMV Screening Library” (2021).